No constants are given. Whether binding was seen depends on the method and setting. Some binding calls cover weakened binding; strength is not graded here.
Assays:
Assay in all cases: peptide or protein array; HuProt human proteome microarray; 5 ug/5 ml biotin-labelled LUBAC or OTULIN in solution, 1 h at room temperature; Cy5-streptavidin, scanned at 635 nm; BSA as negative control; hits: Z-score >= 3 and I_(Mean_Ratio) >= 1.4; both purified
COASY (human) = molecular target: T1, COASY (human) (UniProt Q13057)
T1 sequence: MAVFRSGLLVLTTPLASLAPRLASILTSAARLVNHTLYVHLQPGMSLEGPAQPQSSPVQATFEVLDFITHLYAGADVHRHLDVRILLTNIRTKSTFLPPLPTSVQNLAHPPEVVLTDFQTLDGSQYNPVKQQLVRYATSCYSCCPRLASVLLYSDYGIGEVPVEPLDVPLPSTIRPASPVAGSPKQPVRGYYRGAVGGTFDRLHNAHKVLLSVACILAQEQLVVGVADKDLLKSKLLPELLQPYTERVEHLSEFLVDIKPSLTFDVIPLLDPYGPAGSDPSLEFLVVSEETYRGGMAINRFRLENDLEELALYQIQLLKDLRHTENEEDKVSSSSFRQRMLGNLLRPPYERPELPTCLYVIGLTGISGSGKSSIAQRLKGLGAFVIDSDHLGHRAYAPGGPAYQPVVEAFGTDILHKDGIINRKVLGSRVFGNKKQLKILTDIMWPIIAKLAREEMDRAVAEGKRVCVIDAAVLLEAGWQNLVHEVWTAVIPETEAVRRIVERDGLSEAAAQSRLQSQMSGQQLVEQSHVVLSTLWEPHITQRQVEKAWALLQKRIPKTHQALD

Protein sequences, listed by entry. Tags and fused reporters are not part of them.
UniProt O14964: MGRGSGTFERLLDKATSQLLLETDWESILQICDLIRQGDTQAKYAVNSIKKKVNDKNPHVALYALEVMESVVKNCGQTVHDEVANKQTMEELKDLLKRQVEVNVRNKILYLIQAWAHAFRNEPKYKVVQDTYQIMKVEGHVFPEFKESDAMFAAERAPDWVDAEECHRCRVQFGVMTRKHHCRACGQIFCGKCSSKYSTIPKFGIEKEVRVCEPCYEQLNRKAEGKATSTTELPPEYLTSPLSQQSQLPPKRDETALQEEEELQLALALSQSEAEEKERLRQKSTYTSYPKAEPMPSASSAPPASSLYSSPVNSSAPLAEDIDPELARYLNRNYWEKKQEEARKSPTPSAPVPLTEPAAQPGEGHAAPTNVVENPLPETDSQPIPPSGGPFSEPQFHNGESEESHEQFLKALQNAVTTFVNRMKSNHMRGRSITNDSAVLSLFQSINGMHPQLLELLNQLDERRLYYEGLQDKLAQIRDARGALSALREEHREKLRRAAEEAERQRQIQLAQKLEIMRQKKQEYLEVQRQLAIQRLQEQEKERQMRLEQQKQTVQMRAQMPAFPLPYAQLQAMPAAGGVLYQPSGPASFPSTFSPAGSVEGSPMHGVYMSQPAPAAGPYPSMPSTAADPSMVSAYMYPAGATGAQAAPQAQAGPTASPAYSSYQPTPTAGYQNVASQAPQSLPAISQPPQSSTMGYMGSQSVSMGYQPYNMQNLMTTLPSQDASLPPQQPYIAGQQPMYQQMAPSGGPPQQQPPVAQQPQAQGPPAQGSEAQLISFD

DECR2 (human) = molecular target: T2, DECR2 (human) (UniProt Q9NUI1)
T2 sequence: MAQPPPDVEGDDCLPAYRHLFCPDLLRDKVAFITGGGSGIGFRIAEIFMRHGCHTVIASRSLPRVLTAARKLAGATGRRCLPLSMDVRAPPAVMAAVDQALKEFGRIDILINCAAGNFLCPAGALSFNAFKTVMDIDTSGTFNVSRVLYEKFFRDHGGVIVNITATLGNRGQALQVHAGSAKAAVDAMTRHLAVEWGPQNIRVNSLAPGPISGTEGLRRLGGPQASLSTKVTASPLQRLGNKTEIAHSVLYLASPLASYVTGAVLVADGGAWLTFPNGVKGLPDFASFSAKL

HGS (human) = HGS (human) (UniProt O14964)
PFKP (human) = molecular target: T3, PFKP (human) (UniProt Q01813)
T3 sequence: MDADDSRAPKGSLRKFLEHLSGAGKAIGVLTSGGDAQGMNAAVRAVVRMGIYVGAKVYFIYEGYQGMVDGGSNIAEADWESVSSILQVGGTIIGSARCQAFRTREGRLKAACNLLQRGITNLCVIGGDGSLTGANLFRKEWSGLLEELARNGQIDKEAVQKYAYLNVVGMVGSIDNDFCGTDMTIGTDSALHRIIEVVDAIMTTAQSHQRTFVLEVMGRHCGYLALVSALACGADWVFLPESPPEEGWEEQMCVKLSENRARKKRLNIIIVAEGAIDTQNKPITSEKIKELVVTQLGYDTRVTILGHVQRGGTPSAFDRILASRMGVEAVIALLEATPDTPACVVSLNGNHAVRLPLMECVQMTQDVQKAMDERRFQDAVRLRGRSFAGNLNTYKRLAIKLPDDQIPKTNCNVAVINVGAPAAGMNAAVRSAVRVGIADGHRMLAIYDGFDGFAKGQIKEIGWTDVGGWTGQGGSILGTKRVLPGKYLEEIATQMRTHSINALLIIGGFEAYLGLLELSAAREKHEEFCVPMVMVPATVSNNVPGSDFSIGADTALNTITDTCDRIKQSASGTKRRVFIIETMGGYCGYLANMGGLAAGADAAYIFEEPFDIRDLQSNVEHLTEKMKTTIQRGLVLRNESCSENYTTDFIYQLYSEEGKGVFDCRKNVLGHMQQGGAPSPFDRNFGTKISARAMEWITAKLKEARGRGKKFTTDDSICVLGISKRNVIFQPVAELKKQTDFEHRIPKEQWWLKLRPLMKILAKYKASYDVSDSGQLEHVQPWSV

RBMS2 (human) = molecular target: T4, RBMS2 (human) (UniProt Q15434)
T4 sequence: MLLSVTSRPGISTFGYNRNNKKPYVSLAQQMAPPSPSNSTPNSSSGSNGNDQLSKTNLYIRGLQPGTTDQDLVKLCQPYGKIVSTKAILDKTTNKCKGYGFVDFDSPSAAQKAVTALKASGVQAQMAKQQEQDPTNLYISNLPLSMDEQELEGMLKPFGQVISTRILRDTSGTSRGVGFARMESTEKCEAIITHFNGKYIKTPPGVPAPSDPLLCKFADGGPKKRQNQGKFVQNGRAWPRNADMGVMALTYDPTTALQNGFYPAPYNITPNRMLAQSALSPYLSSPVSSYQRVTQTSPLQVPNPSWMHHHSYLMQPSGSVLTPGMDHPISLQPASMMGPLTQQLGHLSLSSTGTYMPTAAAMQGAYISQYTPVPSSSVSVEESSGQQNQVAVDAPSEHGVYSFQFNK

Measured: binding

linear ubiquitin chain assembly complex (LUBAC), purified as HIS-tagged HOIP with the subunit HOIL-1, biotin-labelled (from UniProt Q96EP0 1-1072; Q9BYM8 1-510)
binds: all assays above
